# Legend:
# [1] = general procedure: Fmoc solid-phase peptide synthesis; Rink amide resin; conditions: whole synthesis, scale 0.05 mmol
# [2] = general procedure: Fmoc solid-phase peptide synthesis; Rink-amide resin (0.30-60 mmol/g substitution), CHEM-IMPEX, with MEGA linker; conditions: whole synthesis, overall isolated
Substance,isolated mass [1] [mg],isolated yield [1] [%],isolated yield [2] [%]
CFPDGRCTKSIPPG-MEGA,15.4,20,
CASHEW-MEGA,,,56
